Results are given in words; binding and its absence hold for the method and conditions named. For part of these data: Binding calls can cover weak binding; strength is not graded here.
What was measured:
[1] = target: NRZ (zebrafish pro-survival Bcl-2 protein), lacking the 28 C-terminal residues (zebrafish (Danio rerio)); assay: crystal structure; NRZ: zBad BH3 complex reconstituted at 1:1.25 molar ratio, crystallised by sitting drop at 20 °C in 0.2 M sodium fluoride, 0.1 M Bis-Tris propane pH 6.5, 20% PEG 3350; space group P6_(3); both purified
[2] = target: NRZ (zebrafish pro-survival Bcl-2 protein), lacking the 28 C-terminal residues (zebrafish (Danio rerio)); assay: ITC; MicroCal iTC200, 25 °C; NRZ (wt, D79A or R86A) at 30 μM in 25 mM HEPES pH 7.5, 150 mM NaCl, 2 mM BME; BH3 peptide at 300 μM titrated in 19 injections of 2.0 μl; triplicate; both purified

Binder | binding [1] | binding [2]
ALWAAKKYGQQLRRMSDEFDKGQMKR [zBad BH3 motif peptide] | binds | –
DGGTMENLSRRLKVTSNLFDIMSGQT [zBeclin BH3 motif peptide] | – | no binding (tested: 300 μM peptide titrated into 30 μM NRZ)
AQSVETLIGQKLQLIGDQFYQEHIMH [zBmf BH3 motif peptide] | – | no binding (tested: 300 μM peptide titrated into 30 μM NRZ)

Source: PMC6148235, “A structural investigation of NRZ mediated apoptosis regulation in zebrafish” (Cell Death & Disease, 2018)
